The other results are listed elsewhere or left out. Many values rest on one well or one pass, so single values are uncertain.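 Imaging used 1,536-well plates; nuclei positive for cleaved PARP by antibody were divided by total DNA-stained nuclei to yield the apoptosis fraction. Doses for screening kept most cells viable, and cell lines differ markedly in resting and induced cleaved-PARP levels.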
Each compound was assayed on WM115 (assay: cleaved PARP positive nuclei fraction relative to DMSO control; melanoma cells; higher = more apoptosis). Conditions: library dose: low library concentration; 72 h.
`O=C(CCCCCCC(=O)Nc1ccccc1)NO` [vorinostat] + CCc1ccc(CCOc2ccc(CC3SC(=O)NC3=O)cc2)nc1 [pioglitazone] (first compound 0.08 µM, partner dose 2 µM) was tested, and the “cleaved PARP positive nuclei fraction” value was 66.3%. With `C#Cc1cccc(Nc2ncnc3cc(OCCOC)c(OCCOC)cc23)c1` [erlotinib] + O=C(Nc1ccccc1)c1cc([N+](=O)[O-])ccc1Cl [GW9662] (first compound 0.8 µM, partner dose 2 µM) the “cleaved PARP positive nuclei fraction” value was 139%. With `Cc1cc(N2CCOCC2)cc2[nH]c(-c3c(NC[C@@H](O)c4cccc(Cl)c4)cc[nH]c3=O)nc12` + O=C1NC(=O)/C(=C/c2ccc(-c3ccc(F)cc3O)o2)S1 [AS252424] (first compound 0.2 µM, partner dose 1 µM) the “cleaved PARP positive nuclei fraction” value was 83.7%. For `C#Cc1cccc(Nc2ncnc3cc(OCCOC)c(OCCOC)cc23)c1` [erlotinib] + CC1(C)NC(=O)N(c2ccc([N+](=O)[O-])c(C(F)(F)F)c2)C1=O [nilutamide] (first compound 0.8 µM, partner dose 1 µM), the “cleaved PARP positive nuclei fraction” value was 90.8%. For `CO[C@@H]1[C@H](N(C)C(=O)c2ccccc2)C[C@H]2O[C@]1(C)n1c3ccccc3c3c4c(c5c6ccccc6n2c5c31)C(=O)NC4` [Midostaurin] + CCCCCCCCCCCC1=C(O)C(=O)C=C(O)C1=O [Embelin] (first compound 0.08 µM, partner dose 1.2 µM), the “cleaved PARP positive nuclei fraction” value was 149%. With `NC(=O)Nc1cc(-c2cccc(F)c2)sc1C(=O)N[C@H]1CCCNC1` + CN(C)S(=O)(=O)c1ccc2c(c1)/C(=C/c1cc3c([nH]1)CCCC3)C(=O)N2 [SU6656] (first compound 0.02 µM, partner dose 0.4 µM) the “cleaved PARP positive nuclei fraction” value was 304%. For `Clc1ccc(Nc2nnc(Cc3ccncc3)c3ccccc23)cc1` [vatalanib] + Cc1cc(N2CCOCC2)cc2[nH]c(-c3c(NC[C@@H](O)c4cccc(Cl)c4)cc[nH]c3=O)nc12 [BMS536924] (first compound 2 µM, partner dose 0.2 µM), the “cleaved PARP positive nuclei fraction” value was 15.8%. In the case of `Cc1cc(N2CCOCC2)cc2[nH]c(-c3c(NC[C@@H](O)c4cccc(Cl)c4)cc[nH]c3=O)nc12` + OCCn1cc(-c2cnc3nnn(Cc4ccc5ncccc5c4)c3n2)cn1 [PF04217903] (first compound 0.2 µM, partner dose 1 µM), the “cleaved PARP positive nuclei fraction” value is reported as 58.2%. For `COc1cc(Nc2ncc(F)c(Nc3ccc4c(n3)NC(=O)C(C)(C)O4)n2)cc(OC)c1OC` [Tamatinib] + Oc1nc(-c2ccc(C(F)(F)F)cc2)nc2c1CSCC2 [XAV939] (first compound 0.4 µM, partner dose 2 µM), the “cleaved PARP positive nuclei fraction” value was 56.7%. `Clc1ccc(Nc2nnc(Cc3ccncc3)c3ccccc23)cc1` [vatalanib] + O=C(Nc1cccc(Cl)c1)Nc1ncc(CCNc2ncnc3ccsc23)s1 [SNS314] (first compound 2 µM, partner dose 0.0008 µM) was tested, and the “cleaved PARP positive nuclei fraction” value was 60.6%. For `NC(=O)Nc1cc(-c2cccc(F)c2)sc1C(=O)N[C@H]1CCCNC1` + COc1ccc(-c2ccc3c(N4CCOCC4)nc(N4C[C@@H](C)O[C@@H](C)C4)nc3n2)cc1CO [KU0063794] (first compound 0.02 µM, partner dose 0.02 µM), the “cleaved PARP positive nuclei fraction” value was 53.6%. In the case of `C[C@@H]1CCN(C(=O)CC#N)C[C@@H]1N(C)c1ncnc2[nH]ccc12` + COc1ccc(-c2ccc3c(N4CCOCC4)nc(N4C[C@@H](C)O[C@@H](C)C4)nc3n2)cc1CO [KU0063794] (first compound 1 µM, partner dose 0.02 µM), the “cleaved PARP positive nuclei fraction” value is reported as 73.2%. For `Clc1ccc(Nc2nnc(Cc3ccncc3)c3ccccc23)cc1` [vatalanib] + O=C1NC(=O)/C(=C/c2ccc(-c3ccc(F)cc3O)o2)S1 [AS252424] (first compound 2 µM, partner dose 1 µM), the “cleaved PARP positive nuclei fraction” value was 159%. For `C[C@]1(c2nc3c(C(N)=O)cccc3[nH]2)CCCN1` [Veliparib] + COc1cc2ncnc(Nc3ccc(Oc4ccccc4)cc3)c2cc1OC [SrcI1] (first compound 1.4 µM, partner dose 2 µM), the “cleaved PARP positive nuclei fraction” value was 268%. In the case of `Cn1nnc2c(C(N)=O)ncn2c1=O` [temozolomide] + Cc1ccc(NC(=O)c2cccc(N(C)C)c2)cc1NC(=O)c1ccc(O)cc1 [ZM336372] (first compound 2 µM, partner dose 2 µM), the “cleaved PARP positive nuclei fraction” value is reported as 80.3%. For `CC1(C)NC(=O)N(c2ccc([N+](=O)[O-])c(C(F)(F)F)c2)C1=O` [nilutamide] + O=C(O)c1ccc(-c2c[nH]c3ncc(-c4ccccc4)cc23)cc1C1CCCC1 [GSK650394] (first compound 1 µM, partner dose 0.16 µM), the “cleaved PARP positive nuclei fraction” value was 59.5%. For `NC(=O)Nc1cc(-c2cccc(F)c2)sc1C(=O)N[C@H]1CCCNC1` + OCCn1cc(-c2cnc3nnn(Cc4ccc5ncccc5c4)c3n2)cn1 [PF04217903] (first compound 0.02 µM, partner dose 1 µM), the “cleaved PARP positive nuclei fraction” value was 84.6%. For `C[C@@H]1CCN(C(=O)CC#N)C[C@@H]1N(C)c1ncnc2[nH]ccc12` + COC(=O)c1sccc1S(=O)(=O)Nc1ccc(Nc2ccccc2)cc1OC [GSK0660] (first compound 1 µM, partner dose 1 µM), the “cleaved PARP positive nuclei fraction” value was 31.5%. `CC(=O)c1c(C)c2cnc(Nc3ccc(N4CCNCC4)cn3)nc2n(C2CCCC2)c1=O` [palbociclib] + CO[C@@H]1[C@H](N(C)C(=O)c2ccccc2)C[C@H]2O[C@]1(C)n1c3ccccc3c3c4c(c5c6ccccc6n2c5c31)C(=O)NC4 [Midostaurin] (first compound 0.04 µM, partner dose 0.08 µM) was tested, and the “cleaved PARP positive nuclei fraction” value was 114%. For `Cc1nc(Nc2ncc(C(=O)Nc3c(C)cccc3Cl)s2)cc(N2CCN(CCO)CC2)n1` [dasatanib] + COc1cc2c(Oc3ccc4[nH]c(C)cc4c3F)ncnc2cc1OCCCN1CCCC1 [cediranib] (first compound 0.004 µM, partner dose 0.4 µM), the “cleaved PARP positive nuclei fraction” value was 98.3%. With `OCc1c[nH]c2ccccc12` [Indole-3-carbinol] + CO[C@@H]1[C@H](N(C)C(=O)c2ccccc2)C[C@H]2O[C@]1(C)n1c3ccccc3c3c4c(c5c6ccccc6n2c5c31)C(=O)NC4 [Midostaurin] (first compound 0.8 µM, partner dose 0.08 µM) the “cleaved PARP positive nuclei fraction” value was 81.6%. With `C=CCNC1=C2C[C@@H](C)C[C@H](OC)[C@H](O)[C@@H](C)/C=C(\C)[C@H](OC(N)=O)[C@@H](OC)/C=C\C=C(/C)C(=O)NC(=CC1=O)C2=O` [Tanespimycin] + Cc1cc([N+](=O)[O-])ccc1NS(=O)(=O)c1cc(Cl)ccc1Cl [FH535] (first compound 0.002 µM, partner dose 1 µM) the “cleaved PARP positive nuclei fraction” value was 140%. For `Cc1cc(N2CCOCC2)cc2[nH]c(-c3c(NC[C@@H](O)c4cccc(Cl)c4)cc[nH]c3=O)nc12` + C[C@@H]1CCN(C(=O)CC#N)C[C@@H]1N(C)c1ncnc2[nH]ccc12 [CP690550] (first compound 0.2 µM, partner dose 1 µM), the “cleaved PARP positive nuclei fraction” value was 66.8%. With `O=C(CCCCCCC(=O)Nc1ccccc1)NO` [vorinostat] + C[C@@H]1CCN(C(=O)CC#N)C[C@@H]1N(C)c1ncnc2[nH]ccc12 [CP690550] (first compound 0.08 µM, partner dose 1 µM) the “cleaved PARP positive nuclei fraction” value was 35.9%. `Cc1cc(N2CCOCC2)cc2[nH]c(-c3c(NC[C@@H](O)c4cccc(Cl)c4)cc[nH]c3=O)nc12` + CCc1ccc(CCOc2ccc(CC3SC(=O)NC3=O)cc2)nc1 [pioglitazone] (first compound 0.2 µM, partner dose 2 µM) was tested, and the “cleaved PARP positive nuclei fraction” value was 47.8%. With `O=C(CCCCCCC(=O)Nc1ccccc1)NO` [vorinostat] + OCCn1cc(-c2cnc3nnn(Cc4ccc5ncccc5c4)c3n2)cn1 [PF04217903] (first compound 0.08 µM, partner dose 1 µM) the “cleaved PARP positive nuclei fraction” value was 65.4%. `Cc1cc(N2CCOCC2)cc2[nH]c(-c3c(NC[C@@H](O)c4cccc(Cl)c4)cc[nH]c3=O)nc12` + Cc1cc([N+](=O)[O-])ccc1NS(=O)(=O)c1cc(Cl)ccc1Cl [FH535] (first compound 0.2 µM, partner dose 1 µM) was tested, and the “cleaved PARP positive nuclei fraction” value was 49%. For `CC(=O)c1c(C)c2cnc(Nc3ccc(N4CCNCC4)cn3)nc2n(C2CCCC2)c1=O` [palbociclib] + Nc1cccc2c1CN(C1CCC(=O)NC1=O)C2=O [lenalidomide] (first compound 0.04 µM, partner dose 1 µM), the “cleaved PARP positive nuclei fraction” value was 159%. With `C=CCNC1=C2C[C@@H](C)C[C@H](OC)[C@H](O)[C@@H](C)/C=C(\C)[C@H](OC(N)=O)[C@@H](OC)/C=C\C=C(/C)C(=O)NC(=CC1=O)C2=O` [Tanespimycin] + COC(=O)c1sccc1S(=O)(=O)Nc1ccc(Nc2ccccc2)cc1OC [GSK0660] (first compound 0.002 µM, partner dose 1 µM) the “cleaved PARP positive nuclei fraction” value was 124%. With `Clc1ccc(Nc2nnc(Cc3ccncc3)c3ccccc23)cc1` [vatalanib] + C[C@]1(c2nc3c(C(N)=O)cccc3[nH]2)CCCN1 [Veliparib] (first compound 2 µM, partner dose 1.4 µM) the “cleaved PARP positive nuclei fraction” value was 146%. In the case of `COCC[n+]1c2c(n(Cc3cnccn3)c1C)C(=O)c1ccccc1C2=O` + NC(=O)Nc1cc(-c2cccc(F)c2)sc1C(=O)N[C@H]1CCCNC1 [AZD7762] (first compound 0.0004 µM, partner dose 0.02 µM), the “cleaved PARP positive nuclei fraction” value is reported as 68.6%. In the case of `Cn1c(Nc2ccc(C(F)(F)F)cc2)nc2cc(Oc3ccnc(-c4ncc(C(F)(F)F)[nH]4)c3)ccc21` + CCN(CC)CCCCNc1ncc2cc(-c3cc(OC)cc(OC)c3)c(NC(=O)NC(C)(C)C)nc2n1 [PD173074] (first compound 0.08 µM, partner dose 0.1 µM), the “cleaved PARP positive nuclei fraction” value is reported as 482%.
